Reference: the supplement of paper PMC12872613
Counter-ions that a name gives are not always drawn. Some of the results follow. Rule as the data show it: active = 0.7 or more and inactive = the rest. Single values are uncertain, as repeats are few or missing.

Tested on: MiaPaCa-2 CLSA-25
Experiment: cell death relative to DMSO vehicle (fraction); higher = more cytotoxic
Conditions: 5 µM; treatment time 48 h; medium cystine 25 µM

Row | SMILES | cell death
1 | COC(=O)/C=C/c1cccc(N(Cc2ccc(-c3ccc(N(C)C)cc3)cc2)C(=O)C2CCCCC2)c1 [Fexaramine] | active: 0.781
2 | Oc1ncnc2[nH]ncc12 [Allopurinol] | inactive: 0.0803
3 | CC(=O)Oc1cc(C(F)(F)F)ccc1C(=O)O [Triflusal] | inactive: 0.00508
4 | N#Cc1ccc(Cn2cncc2CN2CCN(c3cccc(Cl)c3)C(=O)C2)cc1 | inactive: 0.43
5 | C#CCN(C)Cc1ccccc1 [Pargyline hydrochloride] | inactive: 0.0289
6 | Clc1ccc(Cn2c(CN3CCCC3)nc3ccccc32)cc1 [Clemizole hydrochloride] | inactive: 0.212
7 | CC(=O)CCCCn1c(=O)c2c(ncn2C)n(C)c1=O [Pentoxifylline] | inactive: 0.0465
8 | CN1CC(=O)NC1=N [Creatinine] | inactive: 0.0225
9 | N[C@@H]1C[C@H]1c1ccccc1 [Tranylcypromine (2-PCPA) hydrochloride] | inactive: 0.4

Some of these compounds in order of count of non-hydrogen atoms, ascending.
Row | SMILES | cell death
9 | N[C@@H]1C[C@H]1c1ccccc1 [Tranylcypromine (2-PCPA) hydrochloride] | inactive: 0.4
3 | CC(=O)Oc1cc(C(F)(F)F)ccc1C(=O)O [Triflusal] | inactive: 0.00508
6 | Clc1ccc(Cn2c(CN3CCCC3)nc3ccccc32)cc1 [Clemizole hydrochloride] | inactive: 0.212
